The list shows a part of the results. Hit calls seldom repeat between salt and free forms of one compound.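 In K562 cells expressing nanoluciferase-fused kinases, luminescence was recorded at 4 h intervals between 2 and 18 h, normalized as percent of control with DMSO at 100% and a positive control at 0%. A significant (2 sigma) signal drop marks a time point as decreased. The authors' rule for a hit is not shown and takes in more than the number of time points.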
What was measured:
Test in all cases: kinase-Nluc reporter destabilization hit call (1 = scored as downregulated) (binary); higher = compound decreases kinase abundance
Conditions in all cases: K562, 2-18 h
[1] = biological target: ABL1 (UniProt P00519)
[2] = biological target: AKT1 (UniProt P31749)
[3] = biological target: ALK (UniProt Q9UM73)
[4] = biological target: ARAF (UniProt P10398)
[5] = biological target: AURKA (UniProt O14965)
[6] = biological target: AURKB (UniProt Q96GD4)
[7] = biological target: AURKC (UniProt Q9UQB9)
[8] = biological target: BLK (UniProt P51451)
[9] = biological target: BMX (UniProt P51813)
[10] = biological target: BRAF (UniProt P15056)
[11] = test system: BRAF_V600E
[12] = biological target: BTK (UniProt Q06187)
[13] = biological target: CAMK2A (UniProt Q9UQM7)
[14] = biological target: CAMK2G (UniProt Q13555)
[15] = biological target: CDK10 (UniProt Q15131)
[16] = biological target: CDK2 (UniProt P24941)
[17] = biological target: CDK3 (UniProt Q00526)
[18] = biological target: CDK4 (UniProt P11802)
[19] = biological target: CDK5 (UniProt Q00535)
[20] = biological target: CDK6 (UniProt Q00534)

The chains behind the UniProt entries cited, without tags or fusion partners. Where a name states a change or a piece, a line headed by the entry shows the natural chain unless it says otherwise.
UniProt P00519, whole entry: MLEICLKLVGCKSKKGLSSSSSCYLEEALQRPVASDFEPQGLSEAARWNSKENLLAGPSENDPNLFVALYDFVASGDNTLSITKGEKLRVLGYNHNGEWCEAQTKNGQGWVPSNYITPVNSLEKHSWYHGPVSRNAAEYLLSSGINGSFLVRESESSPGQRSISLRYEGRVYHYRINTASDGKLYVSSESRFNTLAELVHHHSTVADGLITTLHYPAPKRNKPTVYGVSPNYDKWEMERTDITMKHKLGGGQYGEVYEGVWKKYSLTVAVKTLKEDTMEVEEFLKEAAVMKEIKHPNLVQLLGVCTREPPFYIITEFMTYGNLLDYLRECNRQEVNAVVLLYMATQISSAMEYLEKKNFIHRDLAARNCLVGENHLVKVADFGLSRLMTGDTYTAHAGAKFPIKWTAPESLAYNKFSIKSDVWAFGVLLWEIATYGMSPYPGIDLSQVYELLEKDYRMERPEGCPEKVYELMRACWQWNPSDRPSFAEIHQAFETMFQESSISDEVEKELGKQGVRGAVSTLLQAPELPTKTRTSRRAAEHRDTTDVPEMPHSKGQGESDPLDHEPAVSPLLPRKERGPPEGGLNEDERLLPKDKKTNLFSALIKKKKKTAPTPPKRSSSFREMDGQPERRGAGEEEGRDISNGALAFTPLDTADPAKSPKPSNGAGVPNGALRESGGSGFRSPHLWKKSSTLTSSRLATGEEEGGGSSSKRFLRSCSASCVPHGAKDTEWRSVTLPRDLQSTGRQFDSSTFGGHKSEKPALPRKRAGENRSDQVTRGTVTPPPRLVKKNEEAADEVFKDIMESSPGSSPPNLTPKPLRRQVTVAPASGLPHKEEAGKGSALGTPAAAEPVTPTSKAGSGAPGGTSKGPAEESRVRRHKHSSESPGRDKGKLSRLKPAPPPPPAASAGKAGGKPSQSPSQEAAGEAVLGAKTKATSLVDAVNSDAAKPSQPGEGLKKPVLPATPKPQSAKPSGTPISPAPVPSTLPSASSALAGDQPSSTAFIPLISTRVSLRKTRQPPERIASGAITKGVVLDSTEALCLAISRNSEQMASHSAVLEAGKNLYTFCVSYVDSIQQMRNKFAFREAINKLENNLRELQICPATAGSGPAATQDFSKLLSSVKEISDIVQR
UniProt P31749: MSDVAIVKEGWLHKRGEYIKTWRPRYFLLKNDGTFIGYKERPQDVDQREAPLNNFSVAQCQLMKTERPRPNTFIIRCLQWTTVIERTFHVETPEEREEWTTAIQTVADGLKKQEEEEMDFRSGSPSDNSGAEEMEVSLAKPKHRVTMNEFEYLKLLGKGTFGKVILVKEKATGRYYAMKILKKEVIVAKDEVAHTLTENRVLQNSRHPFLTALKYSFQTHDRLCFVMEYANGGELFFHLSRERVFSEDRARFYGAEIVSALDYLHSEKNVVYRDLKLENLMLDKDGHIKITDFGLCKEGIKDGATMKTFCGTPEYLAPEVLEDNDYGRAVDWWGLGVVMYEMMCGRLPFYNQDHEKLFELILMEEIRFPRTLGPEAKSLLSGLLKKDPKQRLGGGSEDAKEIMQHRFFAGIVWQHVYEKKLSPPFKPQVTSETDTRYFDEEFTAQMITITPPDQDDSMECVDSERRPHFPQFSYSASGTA
UniProt P10398: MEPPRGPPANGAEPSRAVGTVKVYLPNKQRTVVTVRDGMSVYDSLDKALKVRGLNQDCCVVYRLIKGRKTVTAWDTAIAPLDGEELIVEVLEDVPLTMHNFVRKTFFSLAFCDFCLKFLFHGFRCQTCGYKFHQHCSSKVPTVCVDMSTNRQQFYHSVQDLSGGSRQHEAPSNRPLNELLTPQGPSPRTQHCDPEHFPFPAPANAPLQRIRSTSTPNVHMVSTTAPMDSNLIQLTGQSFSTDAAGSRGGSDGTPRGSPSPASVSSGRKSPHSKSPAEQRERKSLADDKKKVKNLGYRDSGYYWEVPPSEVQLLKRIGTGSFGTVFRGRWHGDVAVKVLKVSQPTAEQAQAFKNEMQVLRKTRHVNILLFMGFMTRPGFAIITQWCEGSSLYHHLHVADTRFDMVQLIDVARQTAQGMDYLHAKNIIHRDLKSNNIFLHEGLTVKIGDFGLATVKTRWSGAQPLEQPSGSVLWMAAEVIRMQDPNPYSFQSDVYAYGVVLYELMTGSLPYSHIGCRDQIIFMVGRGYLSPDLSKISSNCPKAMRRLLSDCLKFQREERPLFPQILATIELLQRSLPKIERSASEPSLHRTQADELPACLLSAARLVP
UniProt O14965: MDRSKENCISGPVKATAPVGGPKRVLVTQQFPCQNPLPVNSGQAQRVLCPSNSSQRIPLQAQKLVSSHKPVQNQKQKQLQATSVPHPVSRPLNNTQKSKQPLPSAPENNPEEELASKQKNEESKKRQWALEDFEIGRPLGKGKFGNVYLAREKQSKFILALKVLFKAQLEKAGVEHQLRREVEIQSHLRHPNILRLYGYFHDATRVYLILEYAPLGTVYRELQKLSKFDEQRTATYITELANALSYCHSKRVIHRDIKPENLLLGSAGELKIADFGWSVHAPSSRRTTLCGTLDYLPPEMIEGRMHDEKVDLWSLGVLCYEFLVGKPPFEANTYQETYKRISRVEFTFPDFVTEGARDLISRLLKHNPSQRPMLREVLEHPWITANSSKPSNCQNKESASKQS
UniProt Q96GD4, whole entry: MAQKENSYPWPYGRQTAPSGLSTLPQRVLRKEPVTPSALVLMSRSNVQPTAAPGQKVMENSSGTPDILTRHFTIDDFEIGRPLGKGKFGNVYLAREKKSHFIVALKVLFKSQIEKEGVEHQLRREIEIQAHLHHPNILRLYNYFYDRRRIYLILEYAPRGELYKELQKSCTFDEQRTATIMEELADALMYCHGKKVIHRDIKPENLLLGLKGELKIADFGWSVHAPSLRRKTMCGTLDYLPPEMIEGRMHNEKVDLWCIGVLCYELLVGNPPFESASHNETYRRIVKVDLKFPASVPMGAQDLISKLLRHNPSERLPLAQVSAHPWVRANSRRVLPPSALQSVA
UniProt Q9UQB9: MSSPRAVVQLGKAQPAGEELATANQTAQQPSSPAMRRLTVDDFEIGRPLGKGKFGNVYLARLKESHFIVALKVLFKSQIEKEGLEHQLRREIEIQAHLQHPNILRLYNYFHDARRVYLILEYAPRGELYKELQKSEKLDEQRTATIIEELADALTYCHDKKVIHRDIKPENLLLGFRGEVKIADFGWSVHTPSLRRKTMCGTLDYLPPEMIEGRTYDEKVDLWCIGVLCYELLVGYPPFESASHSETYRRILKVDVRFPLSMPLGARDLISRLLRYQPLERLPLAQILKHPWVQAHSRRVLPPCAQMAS
UniProt P51451: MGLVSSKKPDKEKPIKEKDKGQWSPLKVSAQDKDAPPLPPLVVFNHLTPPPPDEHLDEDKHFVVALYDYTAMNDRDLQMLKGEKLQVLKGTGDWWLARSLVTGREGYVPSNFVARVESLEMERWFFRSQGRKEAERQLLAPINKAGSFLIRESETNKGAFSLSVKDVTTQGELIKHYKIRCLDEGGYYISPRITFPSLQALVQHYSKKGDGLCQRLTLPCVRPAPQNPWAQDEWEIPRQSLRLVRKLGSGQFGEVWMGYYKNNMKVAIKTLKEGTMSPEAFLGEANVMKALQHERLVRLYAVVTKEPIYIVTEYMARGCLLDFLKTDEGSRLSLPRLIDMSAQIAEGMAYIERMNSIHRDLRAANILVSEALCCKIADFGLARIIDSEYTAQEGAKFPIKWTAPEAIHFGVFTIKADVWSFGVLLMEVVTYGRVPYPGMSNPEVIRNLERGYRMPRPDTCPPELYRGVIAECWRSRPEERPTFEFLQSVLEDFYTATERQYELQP
UniProt Q06187: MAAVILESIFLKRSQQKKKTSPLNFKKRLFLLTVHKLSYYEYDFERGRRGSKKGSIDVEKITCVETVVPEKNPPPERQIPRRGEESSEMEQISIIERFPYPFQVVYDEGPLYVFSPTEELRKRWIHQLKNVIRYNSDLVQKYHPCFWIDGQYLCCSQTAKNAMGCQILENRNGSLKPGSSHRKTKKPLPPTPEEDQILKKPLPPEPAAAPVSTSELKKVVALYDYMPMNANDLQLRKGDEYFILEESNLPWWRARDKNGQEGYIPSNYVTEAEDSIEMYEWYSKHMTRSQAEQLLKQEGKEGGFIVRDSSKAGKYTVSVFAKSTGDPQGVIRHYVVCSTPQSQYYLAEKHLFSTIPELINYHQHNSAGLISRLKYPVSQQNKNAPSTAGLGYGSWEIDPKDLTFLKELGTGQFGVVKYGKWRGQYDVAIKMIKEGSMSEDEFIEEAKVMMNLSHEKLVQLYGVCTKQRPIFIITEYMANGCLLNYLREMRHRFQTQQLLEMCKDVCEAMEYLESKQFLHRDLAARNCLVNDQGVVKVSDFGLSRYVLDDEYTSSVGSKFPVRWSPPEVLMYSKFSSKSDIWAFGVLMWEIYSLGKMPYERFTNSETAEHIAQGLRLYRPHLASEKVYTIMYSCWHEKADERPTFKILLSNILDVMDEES
UniProt Q9UQM7, whole entry: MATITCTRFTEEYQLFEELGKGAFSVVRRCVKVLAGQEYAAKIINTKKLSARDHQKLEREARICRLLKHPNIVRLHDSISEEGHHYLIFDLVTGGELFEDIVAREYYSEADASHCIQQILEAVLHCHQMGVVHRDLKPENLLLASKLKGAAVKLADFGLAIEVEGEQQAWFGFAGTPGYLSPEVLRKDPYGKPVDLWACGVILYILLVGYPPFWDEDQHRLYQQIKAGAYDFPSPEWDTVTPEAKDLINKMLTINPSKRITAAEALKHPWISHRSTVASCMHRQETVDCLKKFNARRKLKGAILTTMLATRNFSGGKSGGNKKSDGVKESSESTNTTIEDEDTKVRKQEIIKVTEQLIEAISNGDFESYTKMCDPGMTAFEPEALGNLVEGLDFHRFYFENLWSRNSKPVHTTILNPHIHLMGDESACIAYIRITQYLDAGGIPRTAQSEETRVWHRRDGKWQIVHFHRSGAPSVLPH
UniProt Q15131: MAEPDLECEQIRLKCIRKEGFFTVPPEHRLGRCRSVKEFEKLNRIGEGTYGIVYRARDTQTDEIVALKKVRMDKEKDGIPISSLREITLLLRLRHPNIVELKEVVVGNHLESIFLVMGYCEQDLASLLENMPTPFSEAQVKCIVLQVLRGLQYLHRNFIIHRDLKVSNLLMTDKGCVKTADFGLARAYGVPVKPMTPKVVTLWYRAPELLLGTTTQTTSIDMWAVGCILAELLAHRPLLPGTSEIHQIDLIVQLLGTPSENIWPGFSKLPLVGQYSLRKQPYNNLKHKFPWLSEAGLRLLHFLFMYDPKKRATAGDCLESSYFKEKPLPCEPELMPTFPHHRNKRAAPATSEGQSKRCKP
UniProt Q00526: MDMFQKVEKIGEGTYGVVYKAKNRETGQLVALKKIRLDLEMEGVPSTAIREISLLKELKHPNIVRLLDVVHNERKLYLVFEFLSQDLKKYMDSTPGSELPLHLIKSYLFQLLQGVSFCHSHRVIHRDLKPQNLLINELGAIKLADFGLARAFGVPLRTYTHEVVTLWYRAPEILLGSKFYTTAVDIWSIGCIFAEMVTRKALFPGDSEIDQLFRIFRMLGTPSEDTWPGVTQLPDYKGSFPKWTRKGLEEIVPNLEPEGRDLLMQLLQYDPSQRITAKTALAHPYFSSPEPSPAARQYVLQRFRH
UniProt P11802: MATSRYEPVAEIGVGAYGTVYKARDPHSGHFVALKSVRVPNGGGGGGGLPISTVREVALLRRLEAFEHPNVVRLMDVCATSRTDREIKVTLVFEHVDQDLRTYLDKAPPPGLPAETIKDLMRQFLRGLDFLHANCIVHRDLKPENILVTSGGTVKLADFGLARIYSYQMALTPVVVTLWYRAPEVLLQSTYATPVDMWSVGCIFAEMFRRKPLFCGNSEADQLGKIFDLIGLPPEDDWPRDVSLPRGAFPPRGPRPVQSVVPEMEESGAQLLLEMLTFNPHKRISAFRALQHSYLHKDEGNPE
UniProt Q00535, whole entry, looked up: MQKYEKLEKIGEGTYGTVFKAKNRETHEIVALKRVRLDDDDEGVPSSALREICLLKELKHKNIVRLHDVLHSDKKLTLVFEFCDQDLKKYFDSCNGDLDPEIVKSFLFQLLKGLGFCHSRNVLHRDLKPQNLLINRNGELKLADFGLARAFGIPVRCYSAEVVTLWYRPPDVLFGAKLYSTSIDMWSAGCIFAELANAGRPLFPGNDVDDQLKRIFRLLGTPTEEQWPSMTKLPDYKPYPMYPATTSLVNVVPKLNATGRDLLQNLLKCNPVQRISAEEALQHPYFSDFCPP
UniProt Q00534, whole entry: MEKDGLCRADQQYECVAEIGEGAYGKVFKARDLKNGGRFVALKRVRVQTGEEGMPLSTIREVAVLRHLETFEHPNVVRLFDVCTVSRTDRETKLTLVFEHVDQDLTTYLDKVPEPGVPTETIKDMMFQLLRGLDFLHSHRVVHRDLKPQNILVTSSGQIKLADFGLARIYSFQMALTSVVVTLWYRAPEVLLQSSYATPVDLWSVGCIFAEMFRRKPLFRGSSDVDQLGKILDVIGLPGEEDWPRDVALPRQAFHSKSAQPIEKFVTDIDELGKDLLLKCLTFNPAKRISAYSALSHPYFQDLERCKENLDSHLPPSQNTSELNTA

Measured: kinase-Nluc reporter destabilization hit call

CCN(CC)Cc1ccc(OC)c(-c2cc3c(-c4ccc(C(=O)O)c(C(C)C)c4)ccnc3[nH]2)c1
inactive: [1]; 2.5 µM 0 | [1]; 10 µM 0 | [2]; 2.5 µM 0 | [2]; 10 µM 0 | [3]; 2.5 µM 0 | [3]; 10 µM 0 | [4]; 2.5 µM 0 | [4]; 10 µM 0 | [5]; 2.5 µM 0 | [5]; 10 µM 0 | [6]; 2.5 µM 0 | [6]; 10 µM 0 | [7]; 2.5 µM 0 | [7]; 10 µM 0 | [8]; 2.5 µM 0 | [8]; 10 µM 0 | [9]; 2.5 µM 0 | [9]; 10 µM 0 | [10]; 2.5 µM 0 | [10]; 10 µM 0 | [11]; 2.5 µM 0 | [11]; 10 µM 0 | [12]; 2.5 µM 0 | [12]; 10 µM 0 | [13]; 2.5 µM 0 | [13]; 10 µM 0 | [14]; 2.5 µM 0 | [14]; 10 µM 0 | [15]; 2.5 µM 0 | [15]; 10 µM 0 | [16]; 2.5 µM 0 | [16]; 10 µM 0 | [17]; 2.5 µM 0 | [17]; 10 µM 0 | [18]; 2.5 µM 0 | [18]; 10 µM 0 | [19]; 2.5 µM 0 | [19]; 10 µM 0 | [20]; 2.5 µM 0 | [20]; 10 µM 0

CC(C)Oc1ccc(-c2nn([C@@H](C)c3oc4ccc(F)cc4c(=O)c3-c3cccc(F)c3)c3ncnc(N)c23)cc1F [Umbralisib]
inactive: [1]; 2.5 µM 0 | [2]; 2.5 µM 0 | [3]; 2.5 µM 0 | [4]; 2.5 µM 0 | [5]; 2.5 µM 0 | [6]; 2.5 µM 0 | [7]; 2.5 µM 0 | [8]; 2.5 µM 0 | [9]; 2.5 µM 0 | [10]; 2.5 µM 0 | [11]; 2.5 µM 0 | [12]; 2.5 µM 0 | [13]; 2.5 µM 0 | [14]; 2.5 µM 0 | [15]; 2.5 µM 0 | [16]; 2.5 µM 0 | [17]; 2.5 µM 0 | [18]; 2.5 µM 0 | [19]; 2.5 µM 0 | [20]; 2.5 µM 0

C=CC(=O)N1CCN(c2ncnc3c(F)c(-c4c(O)cccc4F)c(Cl)cc23)CC1
inactive: [1]; 2.5 µM 0 | [1]; 10 µM 0 | [2]; 2.5 µM 0 | [2]; 10 µM 0 | [3]; 2.5 µM 0 | [3]; 10 µM 0 | [4]; 2.5 µM 0 | [4]; 10 µM 0 | [5]; 2.5 µM 0 | [5]; 10 µM 0 | [6]; 2.5 µM 0 | [6]; 10 µM 0 | [7]; 2.5 µM 0 | [7]; 10 µM 0 | [8]; 2.5 µM 0 | [8]; 10 µM 0 | [9]; 2.5 µM 0 | [9]; 10 µM 0 | [10]; 2.5 µM 0 | [10]; 10 µM 0 | [11]; 2.5 µM 0 | [11]; 10 µM 0 | [12]; 2.5 µM 0 | [12]; 10 µM 0 | [13]; 2.5 µM 0 | [13]; 10 µM 0 | [14]; 2.5 µM 0 | [14]; 10 µM 0 | [15]; 2.5 µM 0 | [15]; 10 µM 0 | [16]; 2.5 µM 0 | [16]; 10 µM 0 | [17]; 2.5 µM 0 | [17]; 10 µM 0 | [18]; 2.5 µM 0 | [18]; 10 µM 0 | [19]; 2.5 µM 0 | [19]; 10 µM 0 | [20]; 2.5 µM 0 | [20]; 10 µM 0

COc1ncc(F)cc1CNc1ccc(Cc2c[nH]c3ncc(C)cc23)c(F)n1 [PLX5622 (hemifumarate)]
inactive: [1]; 10 µM 0 | [2]; 10 µM 0 | [3]; 10 µM 0 | [4]; 10 µM 0 | [5]; 10 µM 0 | [6]; 10 µM 0 | [7]; 10 µM 0 | [8]; 10 µM 0 | [9]; 10 µM 0 | [10]; 10 µM 0 | [11]; 10 µM 0 | [12]; 10 µM 0 | [13]; 10 µM 0 | [14]; 10 µM 0 | [15]; 10 µM 0 | [16]; 10 µM 0 | [17]; 10 µM 0 | [18]; 10 µM 0 | [19]; 10 µM 0 | [20]; 10 µM 0

N#CCC1(n2cc(-c3ncnc4[nH]ccc34)cn2)CN(C2CCN(C(=O)c3ccnc(C(F)(F)F)c3F)CC2)C1 [Itacitinib adipate]
inactive: [1]; 10 µM 0 | [2]; 10 µM 0 | [3]; 10 µM 0 | [4]; 10 µM 0 | [5]; 10 µM 0 | [6]; 10 µM 0 | [7]; 10 µM 0 | [8]; 10 µM 0 | [9]; 10 µM 0 | [10]; 10 µM 0 | [11]; 10 µM 0 | [12]; 10 µM 0 | [13]; 10 µM 0 | [14]; 10 µM 0 | [15]; 10 µM 0 | [16]; 10 µM 0 | [17]; 10 µM 0 | [18]; 10 µM 0 | [19]; 10 µM 0 | [20]; 10 µM 0

COc1cc2c(-c3cnn4cc(N5CCC(N6CCN(C)CC6)CC5)cnc34)ccnc2cc1F [ALK2-IN-4 (succinate)]
inactive: [1]; 10 µM 0 | [2]; 10 µM 0 | [3]; 10 µM 0 | [4]; 10 µM 0 | [5]; 10 µM 0 | [6]; 10 µM 0 | [7]; 10 µM 0 | [8]; 10 µM 0 | [9]; 10 µM 0 | [10]; 10 µM 0 | [11]; 10 µM 0 | [12]; 10 µM 0 | [13]; 10 µM 0 | [14]; 10 µM 0 | [15]; 10 µM 0 | [16]; 10 µM 0 | [17]; 10 µM 0 | [18]; 10 µM 0 | [19]; 10 µM 0 | [20]; 10 µM 0

C=CC(=O)Nc1cc(Nc2ncc(C(=O)OC(C)C)c(-c3cn(C)c4ccccc34)n2)c(OC)cc1N(C)CCN(C)C [Mobocertinib (succinate)]
inactive: [1]; 10 µM 0 | [2]; 10 µM 0 | [3]; 10 µM 0 | [4]; 10 µM 0 | [5]; 10 µM 0 | [6]; 10 µM 0 | [7]; 10 µM 0 | [8]; 10 µM 0 | [9]; 10 µM 0 | [10]; 10 µM 0 | [11]; 10 µM 0 | [12]; 10 µM 0 | [13]; 10 µM 0 | [14]; 10 µM 0 | [15]; 10 µM 0 | [16]; 10 µM 0 | [17]; 10 µM 0 | [18]; 10 µM 0 | [19]; 10 µM 0 | [20]; 10 µM 0
